{"source": "paper doi:10.1101/2022.02.02.478874", "binders": {"B1": {"name": "Spindly^1-275 (domain or fragment, UniProt Q96EA4 1-275)", "chain": "MEADIITNLRCRLKEAEEERLKAAQYGLQLVESQNELQNQLDKCRNEMMTMTESYEQEKYTLQREVELKSRMLESLSCECEAIKQQQKMHLEKLEEQLSRSHGQEVNELKTKIEKLKVELDEARLSEKQLKHQVDHQKELLSCKSEELRVMSERVQESMSSEMLALQIELTEMESMKTTLKEEVNELQYRQEQLELLITNLMRQVDRLKEEKEEREKEAVSYYNALEKARVANQDLQVQLDQALQQALDPNSKGNSLFAEVEDRRAAMERQLISM"}, "B2": {"name": "^mChSpindly^Δ276-306 (protein, UniProt Q96EA4)", "chain": "MEADIITNLRCRLKEAEEERLKAAQYGLQLVESQNELQNQLDKCRNEMMTMTESYEQEKYTLQREVELKSRMLESLSCECEAIKQQQKMHLEKLEEQLSRSHGQEVNELKTKIEKLKVELDEARLSEKQLKHQVDHQKELLSCKSEELRVMSERVQESMSSEMLALQIELTEMESMKTTLKEEVNELQYRQEQLELLITNLMRQVDRLKEEKEEREKEAVSYYNALEKARVANQDLQVQLDQALQQALDPNSKGNSLFAEVEDRRAAMERQLISMKGSQTEFEQQERLLAMLEQKNGEIKHLLGEIRNLEKFKNLYDSMESKPSVDSGTLEDNTYYTDLLQMKLDNLNKEIESTKGELSIQRMKALFESQRALDIERKLFANERCLQLSESENMKLRAKLDELKLKYEPEETVEVPVLKKRREVLPVDITTAKDACVNNSALGGEVYRLPPQKEETQSCPNSLEDNNLQLEKSVSIYTPVVSLSPHKNLPVDMQLKKEKKCVKLIGVPADAEALSERSGNTPNSPRLAAESKLQTEVKEGKETSSKLEKETCKKLHPILYVSSKSTPETQCPQQ"}, "B3": {"name": "^mChSpindly^76-605 (domain or fragment, UniProt Q96EA4 76-605)", "chain": "LSCECEAIKQQQKMHLEKLEEQLSRSHGQEVNELKTKIEKLKVELDEARLSEKQLKHQVDHQKELLSCKSEELRVMSERVQESMSSEMLALQIELTEMESMKTTLKEEVNELQYRQEQLELLITNLMRQVDRLKEEKEEREKEAVSYYNALEKARVANQDLQVQLDQALQQALDPNSKGNSLFAEVEDRRAAMERQLISMKVKYQSLKKQNVFNREQMQRMKLQIATLLQMKGSQTEFEQQERLLAMLEQKNGEIKHLLGEIRNLEKFKNLYDSMESKPSVDSGTLEDNTYYTDLLQMKLDNLNKEIESTKGELSIQRMKALFESQRALDIERKLFANERCLQLSESENMKLRAKLDELKLKYEPEETVEVPVLKKRREVLPVDITTAKDACVNNSALGGEVYRLPPQKEETQSCPNSLEDNNLQLEKSVSIYTPVVSLSPHKNLPVDMQLKKEKKCVKLIGVPADAEALSERSGNTPNSPRLAAESKLQTEVKEGKETSSKLEKETCKKLHPILYVSSKSTPETQCPQQ"}, "B4": {"name": "Spindly^156-275 (domain or fragment, UniProt Q96EA4 156-275)", "chain": "QESMSSEMLALQIELTEMESMKTTLKEEVNELQYRQEQLELLITNLMRQVDRLKEEKEEREKEAVSYYNALEKARVANQDLQVQLDQALQQALDPNSKGNSLFAEVEDRRAAMERQLISM"}, "B5": {"name": "^mChSpindly^33-605 (domain or fragment, UniProt Q96EA4 33-605)", "chain": "SQNELQNQLDKCRNEMMTMTESYEQEKYTLQREVELKSRMLESLSCECEAIKQQQKMHLEKLEEQLSRSHGQEVNELKTKIEKLKVELDEARLSEKQLKHQVDHQKELLSCKSEELRVMSERVQESMSSEMLALQIELTEMESMKTTLKEEVNELQYRQEQLELLITNLMRQVDRLKEEKEEREKEAVSYYNALEKARVANQDLQVQLDQALQQALDPNSKGNSLFAEVEDRRAAMERQLISMKVKYQSLKKQNVFNREQMQRMKLQIATLLQMKGSQTEFEQQERLLAMLEQKNGEIKHLLGEIRNLEKFKNLYDSMESKPSVDSGTLEDNTYYTDLLQMKLDNLNKEIESTKGELSIQRMKALFESQRALDIERKLFANERCLQLSESENMKLRAKLDELKLKYEPEETVEVPVLKKRREVLPVDITTAKDACVNNSALGGEVYRLPPQKEETQSCPNSLEDNNLQLEKSVSIYTPVVSLSPHKNLPVDMQLKKEKKCVKLIGVPADAEALSERSGNTPNSPRLAAESKLQTEVKEGKETSSKLEKETCKKLHPILYVSSKSTPETQCPQQ"}, "B6": {"name": "^mChSpindly^Δ26-32 (protein, UniProt Q96EA4)", "chain": "MEADIITNLRCRLKEAEEERLKAAQSQNELQNQLDKCRNEMMTMTESYEQEKYTLQREVELKSRMLESLSCECEAIKQQQKMHLEKLEEQLSRSHGQEVNELKTKIEKLKVELDEARLSEKQLKHQVDHQKELLSCKSEELRVMSERVQESMSSEMLALQIELTEMESMKTTLKEEVNELQYRQEQLELLITNLMRQVDRLKEEKEEREKEAVSYYNALEKARVANQDLQVQLDQALQQALDPNSKGNSLFAEVEDRRAAMERQLISMKVKYQSLKKQNVFNREQMQRMKLQIATLLQMKGSQTEFEQQERLLAMLEQKNGEIKHLLGEIRNLEKFKNLYDSMESKPSVDSGTLEDNTYYTDLLQMKLDNLNKEIESTKGELSIQRMKALFESQRALDIERKLFANERCLQLSESENMKLRAKLDELKLKYEPEETVEVPVLKKRREVLPVDITTAKDACVNNSALGGEVYRLPPQKEETQSCPNSLEDNNLQLEKSVSIYTPVVSLSPHKNLPVDMQLKKEKKCVKLIGVPADAEALSERSGNTPNSPRLAAESKLQTEVKEGKETSSKLEKETCKKLHPILYVSSKSTPETQCPQQ"}, "B7": {"name": "^mChSpindly^CC2* (R295E-K297E) (protein, UniProt Q96EA4 1-605)", "chain": "MEADIITNLRCRLKEAEEERLKAAQYGLQLVESQNELQNQLDKCRNEMMTMTESYEQEKYTLQREVELKSRMLESLSCECEAIKQQQKMHLEKLEEQLSRSHGQEVNELKTKIEKLKVELDEARLSEKQLKHQVDHQKELLSCKSEELRVMSERVQESMSSEMLALQIELTEMESMKTTLKEEVNELQYRQEQLELLITNLMRQVDRLKEEKEEREKEAVSYYNALEKARVANQDLQVQLDQALQQALDPNSKGNSLFAEVEDRRAAMERQLISMKVKYQSLKKQNVFNREQMQEMELQIATLLQMKGSQTEFEQQERLLAMLEQKNGEIKHLLGEIRNLEKFKNLYDSMESKPSVDSGTLEDNTYYTDLLQMKLDNLNKEIESTKGELSIQRMKALFESQRALDIERKLFANERCLQLSESENMKLRAKLDELKLKYEPEETVEVPVLKKRREVLPVDITTAKDACVNNSALGGEVYRLPPQKEETQSCPNSLEDNNLQLEKSVSIYTPVVSLSPHKNLPVDMQLKKEKKCVKLIGVPADAEALSERSGNTPNSPRLAAESKLQTEVKEGKETSSKLEKETCKKLHPILYVSSKSTPETQCPQQ"}, "B8": {"name": "^mChSpindly^ΔRV (protein, UniProt Q96EA4 1-605)", "chain": "MEADIITNLRCRLKEAEEERLKAAQYGLQLVESQNELQNQLDKCRNEMMTMTESYEQEKYTLQREVELKSRMLESLSCECEAIKQQQKMHLEKLEEQLSRSHGQEVNELKTKIEKLKVELDEARLSEKQLKHQVDHQKELLSCKSEELRVMSEQESMSSEMLALQIELTEMESMKTTLKEEVNELQYRQEQLELLITNLMRQVDRLKEEKEEREKEAVSYYNALEKARVANQDLQVQLDQALQQALDPNSKGNSLFAEVEDRRAAMERQLISMKVKYQSLKKQNVFNREQMQRMKLQIATLLQMKGSQTEFEQQERLLAMLEQKNGEIKHLLGEIRNLEKFKNLYDSMESKPSVDSGTLEDNTYYTDLLQMKLDNLNKEIESTKGELSIQRMKALFESQRALDIERKLFANERCLQLSESENMKLRAKLDELKLKYEPEETVEVPVLKKRREVLPVDITTAKDACVNNSALGGEVYRLPPQKEETQSCPNSLEDNNLQLEKSVSIYTPVVSLSPHKNLPVDMQLKKEKKCVKLIGVPADAEALSERSGNTPNSPRLAAESKLQTEVKEGKETSSKLEKETCKKLHPILYVSSKSTPETQCPQQ"}, "B9": {"name": "GST-Spindly^CC2* (protein, UniProt Q96EA4 1-605)", "chain": "B7 chain"}, "B10": {"name": "Spindly^1-354 (domain or fragment, UniProt Q96EA4 1-354)", "chain": "MEADIITNLRCRLKEAEEERLKAAQYGLQLVESQNELQNQLDKCRNEMMTMTESYEQEKYTLQREVELKSRMLESLSCECEAIKQQQKMHLEKLEEQLSRSHGQEVNELKTKIEKLKVELDEARLSEKQLKHQVDHQKELLSCKSEELRVMSERVQESMSSEMLALQIELTEMESMKTTLKEEVNELQYRQEQLELLITNLMRQVDRLKEEKEEREKEAVSYYNALEKARVANQDLQVQLDQALQQALDPNSKGNSLFAEVEDRRAAMERQLISMKVKYQSLKKQNVFNREQMQRMKLQIATLLQMKGSQTEFEQQERLLAMLEQKNGEIKHLLGEIRNLEKFKNLYDSMESKP"}, "B11": {"name": "^mChSpindly^22-605 (domain or fragment, UniProt Q96EA4 22-605)", "chain": "KAAQYGLQLVESQNELQNQLDKCRNEMMTMTESYEQEKYTLQREVELKSRMLESLSCECEAIKQQQKMHLEKLEEQLSRSHGQEVNELKTKIEKLKVELDEARLSEKQLKHQVDHQKELLSCKSEELRVMSERVQESMSSEMLALQIELTEMESMKTTLKEEVNELQYRQEQLELLITNLMRQVDRLKEEKEEREKEAVSYYNALEKARVANQDLQVQLDQALQQALDPNSKGNSLFAEVEDRRAAMERQLISMKVKYQSLKKQNVFNREQMQRMKLQIATLLQMKGSQTEFEQQERLLAMLEQKNGEIKHLLGEIRNLEKFKNLYDSMESKPSVDSGTLEDNTYYTDLLQMKLDNLNKEIESTKGELSIQRMKALFESQRALDIERKLFANERCLQLSESENMKLRAKLDELKLKYEPEETVEVPVLKKRREVLPVDITTAKDACVNNSALGGEVYRLPPQKEETQSCPNSLEDNNLQLEKSVSIYTPVVSLSPHKNLPVDMQLKKEKKCVKLIGVPADAEALSERSGNTPNSPRLAAESKLQTEVKEGKETSSKLEKETCKKLHPILYVSSKSTPETQCPQQ"}}, "note": "Results are given in words; binding and its absence hold for the method and conditions named. Some binding calls cover weakened binding; strength is not graded here. Where a sequence is shown, tags or fusion partners need not be part of it.", "data": [{"biological_target": "Dynactin pointed end (PE) complex (p25, p27, p62, Arp11) (UniProt Q9BTE1)", "assay": "SEC", "values": [{"binder": "B1", "binding": "binds"}, {"binder": "B2", "binding": "binds"}, {"binder": "B3", "binding": "binds"}, {"binder": "B4", "binding": "binds"}, {"binder": "B5", "binding": "binds"}, {"binder": "B6", "binding": "binds weakly"}, {"binder": "B7", "binding": "binds"}, {"binder": "B8", "binding": "binds"}, {"binder": "B9", "binding": "binds"}, {"binder": "B10", "binding": "no binding"}, {"binder": "B11", "binding": "no binding"}]}]}
